The list is a part of this screen's results and no random one: it gathers tests that were run many times, whatever their T/C, doses with no T/C, and many T/C values between a quarter and a half above the control. Other doses and runs of a compound stand elsewhere. T/C: endpoint of the treated group in % of that of the vehicle group. Some entries give survivors of the animals treated and no T/C: the source files T/C as zero there, which appears to mark a toxic dose or a test without result, not a measured value. Some doses without a T/C left all or most animals alive at the check, yet need not have been tolerated: survival well below the control is almost never listed, so the zero probably covers shortened survival too. Survivors were counted at the toxicity check, usually on the fifth day, unless a day is given; later deaths do not show. Schedule codes are those of the source, read here as Q, the interval in days (D) or hours (H), X, the number of doses. Some entries hold several experiments; their values stand side by side, smallest first. For survival time, the PubChem record calls one and a half times the control and up active, and a quarter to a half above the control has no call in these data; cut-offs in other NCI protocols can differ. Marks such as (2×) stand for listed records that agree. Some T/C values are followed by the survivors on the day toxicity was checked, most often the fifth; without a count, all were alive then.

This experiment deals with P388 leukemia ip, CD2F1 mice, survival T/C. The experiment can be described thus: NCI In Vivo Anticancer Drug Screen. Data for tumor model P388 Leukemia (intraperitoneal) in CD2F1 (CDF1) mice. As to conditions: T/C endpoint: median survival time, higher T/C = longer survival.
The mark [1] stands for this setting: dose: 12.5 mg/kg/injection, schedule: Q01DX009 (ip), vehicle: saline with Tween-80.
The mark [2] stands for this setting: dose: 50.0 mg/kg/injection, schedule: Q01DX009 (ip), vehicle: saline with Tween-80.
[3] abbreviates: dose: 100.0 mg/kg/injection, schedule: Q01DX009 (ip), vehicle: saline with Tween-80.
Setting [4] is: dose: 400.0 mg/kg/injection, schedule: Q01DX001 (ip), vehicle: saline with Tween-80.
The mark [5] stands for this setting: dose: 50.0 mg/kg/injection, schedule: Q01DX005 (ip), vehicle: saline with Tween-80.
The mark [6] stands for this setting: dose: 100.0 mg/kg/injection, schedule: Q01DX005 (ip), vehicle: saline with Tween-80.
Setting [7] is: dose: 200.0 mg/kg/injection, schedule: Q01DX005 (ip), vehicle: saline with Tween-80.
[8] abbreviates: dose: 200.0 mg/kg/injection, schedule: Q01DX009 (ip), vehicle: saline.
[9] abbreviates: dose: 200.0 mg/kg/injection, schedule: Q01DX005 (ip), vehicle: saline.
The mark [10] stands for this setting: dose: 50.0 mg/kg/injection, schedule: Q01DX005 (ip), vehicle: saline.
The mark [11] stands for this setting: dose: 100.0 mg/kg/injection, schedule: Q01DX005 (ip), vehicle: saline.

Turning to `O=C1OC(c2cccc(Cl)c2)=N/C1=C\C=C/c1ccccc1`, the survivor count was 6 of 6 (dose: 200.0 mg/kg/injection, schedule: Q01DX009 (ip), vehicle: suspension in saline) and 5 of 6 (dose: 400.0 mg/kg/injection, schedule: Q01DX009 (ip), vehicle: suspension in saline).
Take `CCN(CC)CCNc1ccc(COC(=O)NC)c2sc3ccccc3c(=O)c12`: the survivor count under setting [1] was 1 of 6; the survivor count under setting [2] is reported as 0 of 6; the survivor count under setting [3] is 0 of 6; the survivor count (dose: 200.0 mg/kg/injection, schedule: Q01DX009 (ip), vehicle: saline with Tween-80) was 0 of 6.
For `CCCCCCCCC(O)C#CC(N)=O` (stereo not drawn), the survivor count under setting [4] is recorded as 0 of 6.
Consider `N#Cc1ccc(N=Cc2ccc(C=Nc3ccc(C#N)c(C#N)c3)cc2)cc1C#N`, for which, under setting [2], the survivor count is 6 of 6.
Turning to `CN1CCc2cc3c(cc2[C@H]1[C@@H]1OC(=O)c2c1ccc1c2OCO1)OCO3`, the survivor count is 0 of 6 (dose: 25.0 mg/kg/injection, schedule: Q01DX005 (ip), vehicle: saline with Tween-80); 1 of 5 under setting [5]; 0 of 5 under setting [6]; 0 of 5 under setting [7].
On to `CC([NH-])C(C)[NH-].[Cl][Pt+2][Cl]` (stereo not drawn), for which the T/C reads like this: (dose: 3.12 mg/kg/injection, schedule: Q01DX001 (ip), vehicle: Klucel (hydroxypropylcellulose) (HPC)) 127 % of control; (dose: 6.25 mg/kg/injection, schedule: Q01DX001 (ip), vehicle: Klucel (hydroxypropylcellulose) (HPC)) 130 % of control (2×). The survivor count is, setting by setting: (dose: 50.0 mg/kg/injection, schedule: Q01DX001 (ip), vehicle: Klucel (hydroxypropylcellulose) (HPC)) 4 of 6 and 5 of 6; (dose: 100.0 mg/kg/injection, schedule: Q01DX001 (ip), vehicle: Klucel (hydroxypropylcellulose) (HPC)) 0 of 6 and 3 of 6; (dose: 200.0 mg/kg/injection, schedule: Q01DX001 (ip), vehicle: Klucel (hydroxypropylcellulose) (HPC)) 0 of 6; (dose: 400.0 mg/kg/injection, schedule: Q01DX001 (ip), vehicle: Klucel (hydroxypropylcellulose) (HPC)) 0 of 6.
Consider `O=C1NC(=O)C2C3CCC(C12)C1C2C(=O)NC(=O)C2C31` (stereo not drawn), for which the survivor count under setting [6] is given as 2 of 6 and the survivor count under setting [7] is reported as 1 of 6.
As to `C[N+](C)(C)CCC(=O)c1ccc([N+](=O)[O-])cc1`, the survivor count under setting [8] was 0 of 6.
Turning to `CCN(CC)CCNC(=O)C(=O)NCCN(CC)CC`, under setting [9], the survivor count is 0 of 5.
For `N=c1ccc([N+](=O)[O-])cn1O`, under setting [8], the survivor count is recorded as 4 of 6.
In the case of `Cc1c(CNc2ccc(C(=O)NC(CC(=O)O)C(=O)O)cc2)ccc2nc(N)nc(N)c12` (stereo not drawn), the survivor count (dose: 37.5 mg/kg/injection, schedule: Q04DX003 (ip), vehicle: saline with Tween-80) was 6 of 6 and the survivor count (dose: 50.0 mg/kg/injection, schedule: Q04DX003 (ip), vehicle: saline with Tween-80) is reported as 6 of 6.
In the case of `CN(C)CCCOc1ccc(NC2=C(Cl)C(=O)C(Nc3ccc(OCCCN(C)C)cc3)=C(Cl)C2=O)cc1`, the survivor count is on record as 1 of 5 under setting [10], 0 of 5 under setting [11] and 0 of 5 under setting [9].
Regarding `COc1ccc(N=Nc2c(C)[nH]n(C)c2=O)cc1`, the survivor count (dose: 400.0 mg/kg/injection, schedule: Q04DX002 (ip), vehicle: saline with Tween-80) is listed as 4 of 6.
Turning to `CN1CCC/C1=C1/Cc2ccccc2C1=O`, the T/C (dose: 200.0 mg/kg/injection, schedule: Q01DX005 (ip), vehicle: Klucel (hydroxypropylcellulose) (HPC)) was 125 % of control.
For `CCOC(=O)/C=C(\C)NC1CC(OC2CC(O)(C(=O)CO)Cc3c(O)c4c(c(O)c32)C(=O)c2c(OC)cccc2C4=O)OC(C)C1O` (stereo not drawn), where the note is “dose: 25.0 mg/kg/injection, schedule: Q04DX003 (ip), vehicle: saline with Tween-80”, the T/C was 126 % of control.
Turning to `CN(C)c1ccc(/C=C/c2cc[n+](C)c(/C=C/c3ccc(N(C)C)cc3)c2)cc1`, the survivor count is 4 of 5 (dose: 3.13 mg/kg/injection, schedule: Q01DX005 (ip), vehicle: saline); 0 of 5 (dose: 6.25 mg/kg/injection, schedule: Q01DX005 (ip), vehicle: saline); 0 of 5 (dose: 12.5 mg/kg/injection, schedule: Q01DX005 (ip), vehicle: saline); 0 of 5 (dose: 25.0 mg/kg/injection, schedule: Q01DX005 (ip), vehicle: saline); 0 of 5 under setting [10]; 0 of 5 under setting [11]. In addition, the survivor count under setting [9] was 0 of 5.
Consider `CC1(c2cccc[n+]2Cc2ccc(Cl)c3ccccc23)OCCO1`, for which the survivor count (dose: 50.0 mg/kg/injection, schedule: Q01DX009 (ip), vehicle: saline) was 0 of 6.
In the case of `CC1(C)N=C(N)N=C(N)N1c1ccc(OCCCCNC(=O)c2ccc(S(=O)(=O)F)cc2)c(Cl)c1`, the T/C was 128 % of control under setting [1]; 149 % of control (dose: 12.5 mg/kg/injection, schedule: Q01DX009 (ip), vehicle: saline); 146 % of control under setting [2]; 149 % of control [5 of 6 alive] (dose: 100.0 mg/kg/injection, schedule: Q01DX009 (ip), vehicle: saline). Also, the survivor count was 6 of 6 under setting [3] and 0 of 6 under setting [8].
In the case of `NC(=S)N/N=C1/C(=O)N(C2CCCCCC2)C(=O)C1C(=O)NC1CCCCCC1` (stereo not drawn), the survivor count was 1 of 6 under setting [6] and 0 of 6 under setting [7].
As to `COC(=O)C1([Se]c2ccccc2)CCN2CCC(OCc3ccccc3[N+](=O)[O-])C21` (stereo not drawn), the survivor count runs as follows: (dose: 200.0 mg/kg/injection, schedule: Q01DX001 (ip), vehicle: saline with Tween-80) 0 of 6; under setting [4], 0 of 6.
As to `COc1ccccc1N1CCN(c2nc(NC(=O)c3ccccc3)nn2C)CC1`, the survivor count (dose: 240.0 mg/kg/injection, schedule: Q01DX005 (ip), vehicle: Klucel (hydroxypropylcellulose) (HPC)) is 5 of 6.
In the case of `O=C(Nc1ccc(C2=NCCN2)cc1)c1cc2ccc(C3=NCCN3)cc2o1`, the survivor count (dose: 400.0 mg/kg/injection, schedule: Q04DX003 (ip), vehicle: suspension in saline) is 3 of 6.
In the case of `CCN(CC)P(=O)(N1CC1C)N1CC1C` (stereo not drawn), the T/C (dose: 50.0 mg/kg/injection, schedule: Q04DX003 (ip), vehicle: saline) was 140 % of control.
`CC(=O)n1c2ccccc2c2c(C)c3c[n+]([O-])ccc3c(C)c21`: the T/C (dose: 100.0 mg/kg/injection, schedule: Q04DX002 (ip), vehicle: saline with Tween-80) is 142 % of control.
Take `CCc1nc(N)nc(N)c1-c1ccc(N2CCCCC2)cc1`: the survivor count (dose: 60.0 mg/kg/injection, schedule: Q01DX005 (ip), vehicle: saline with Tween-80) is 1 of 6; the survivor count (dose: 120.0 mg/kg/injection, schedule: Q01DX005 (ip), vehicle: saline with Tween-80) is given as 0 of 6; the survivor count (dose: 240.0 mg/kg/injection, schedule: Q01DX005 (ip), vehicle: saline with Tween-80) is on record as 0 of 6.
As for `CC(C)NC(=O)OCc1c(COC(=O)NC(C)C)c2n(c1Br)CCC2`, the survivor count was 6 of 6 under setting [5], 1 of 6 under setting [6] and 0 of 6 under setting [7].
Regarding `COc1ccc2c(c1)CCCC(Br)C2=O` (stereo not drawn), the T/C is, setting by setting: (dose: 50.0 mg/kg/injection, schedule: Q01DX009 (ip), vehicle: distilled water + alcohol) 131 % of control; (dose: 100.0 mg/kg/injection, schedule: Q01DX009 (ip), vehicle: distilled water + alcohol) 144 % of control; (dose: 200.0 mg/kg/injection, schedule: Q01DX009 (ip), vehicle: distilled water + alcohol) 146 % of control [5 of 6 alive]. Also, the survivor count (dose: 400.0 mg/kg/injection, schedule: Q01DX009 (ip), vehicle: distilled water + alcohol) is listed as 3 of 6.

The values are drawn from PubChem BioAssay AID330 (DTP/NCI, 2004).
